Several values for one entry are separate records, joined by “and”; a condition that tells them apart may be missing. Identical values can stand only once. The whole screen tested about 400,000 compounds, of which about 13,000 (3.2%) were called active. The shares of active, inactive and inconclusive entries below differ from those in the screen. Calls come from the whole dose curve; as a rule, active = well fitted cell-killing curve with a large enough effect; inconclusive = small, poorly fitted or top-dose-only effect, or effect the other way; inactive = flat fitted curve, though single readings scatter. Potencies beside an inconclusive call are fits to weak or partial responses and may not hold up.
Test: qHTS assay for MDR1-selective chemotherapeutics: Primary screen using the drug-selected MDR subline cells KB-V1; note: nearly all actives have a fitted effect of over 60% in size
Settings: KB-V1 MDR cells viability, CellTiter-Glo, 72 h; activity change, negative = cytotoxicity: at 46.1 µM (top of the series)
Method in brief: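 Cytotoxicity toward P-gp-expressing KB-V1 cells was determined as loss of CellTiter-Glo luminescence after 72 h at 37 degrees C. Compounds were tested in quantitative HTS format across a concentration range, with curves fitted to normalized data.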
For `CN1CCC(N(C)c2nc(-c3ccc([N+](=O)[O-])cc3)nc3ccccc23)CC1`, the Potency was inconclusive: 25.9 µM [cytotoxic, partial curve, poor fit].
With `COC(=O)C1=C(c2ccc(OCc3ccccc3)cc2)C[C@@H]2CC[C@H]1N2C(=O)NCc1ccccc1C(F)(F)F` the Potency was inconclusive: 18.4 µM [cytotoxic, partial curve, poor fit].
In the case of `CCCC1COC(Cn2cncn2)(c2ccc(Cl)cc2Cl)O1` (stereo not given), the “activity change, negative = cytotoxicity” value is reported as inactive: -5.16%.
With `COC(=O)C(O)(c1cn(C)c2ccccc12)C(F)(F)F` (stereo not given) the “activity change, negative = cytotoxicity” value was inactive: 5.86%.
For `C[C@H](NC(=O)CCC(=O)N1C[C@H]2C[C@H](C1)c1cccc(=O)n1C2)c1ccccc1`, the Potency was inconclusive: 7.31 µM [rising, partial curve, poor fit].
In the case of `CCOC(=O)[C@]12Cc3cc(Cl)ccc3[C@H]1N(Cc1ccccc1)C(=O)c1ccccc12`, the Potency is reported as inconclusive: 14.6 µM [cytotoxic, partial curve] and active: 23.1 µM.
With `COc1ccc(OC)c(-n2c(O)c(C=NCCN3CCNCC3)c(=O)[nH]c2=S)c1` the Potency was inconclusive: 29.1 µM [rising, single point].
For `Cc1cccc(C(O)(C(=O)O)c2ccccc2)c1` (stereo not given), the “activity change, negative = cytotoxicity” value was inactive: 3.66%.
With `CN1CCN(C(=S)SCC(=O)Nc2ccc(Cl)cc2C(=O)c2ccccc2)CC1` the Potency was active: 5.17 µM.
In the case of `CN1CCCC(C(=O)c2ccc(Cl)cc2)C1` (stereo not given), the “activity change, negative = cytotoxicity” value is reported as inactive: 3.36%.
In the case of `O=C(CCl)c1ccc(O)c(O)c1`, the “activity change, negative = cytotoxicity” value is reported as inactive: -2.25%.
For `Cc1ccccc1C(O)(Cc1ccccc1)C1CN2CCC1CC2` (stereo not given), the Potency was inconclusive: 22.4 µM [cytotoxic, single point].
In the case of `C/C(=N\NP(=S)(c1ccccc1)c1ccccc1)c1ccc(O)cc1O`, the Potency is reported as inconclusive: 18.4 µM [cytotoxic, single point].
For `CC(C)c1ccc(N2C(=O)NC(=O)/C(=C\C=C\c3ccco3)C2=O)cc1`, the Potency was inconclusive: 29.1 µM [cytotoxic, single point].
With `Cc1ccc2c(CN3CC=C(c4ccccc4)CC3)cc(=O)oc2c1C` the “activity change, negative = cytotoxicity” value was inactive: -11.8%.
For `Cc1nn(Cc2c(Cl)cccc2Cl)c(Cl)c1C(=O)O`, the “activity change, negative = cytotoxicity” value was inactive: -4.79%.
In the case of `N#Cc1cc2c(nc1SCC(=O)Nc1ccc(F)c(Cl)c1)C1CCN2CC1`, the Potency is reported as active: 14.6 µM.
For `CC[C@]12C=CCN3CCC4(c5cc(Br)c(OC)cc5N(C)C4[C@@](O)(C(=O)OC)[C@@H]1OC(C)=O)C32` (stereo not given in full), the “activity change, negative = cytotoxicity” value was inactive: 1.71%.
For `O=C(COc1ccc2ccccc2c1)N1CCN(Cc2c[nH]c3ccccc23)CC1`, the Potency was inconclusive: 18.4 µM [cytotoxic, single point].
With `CCCCn1c(O)c(C(CC)=NCc2cccnc2)c(=O)[nH]c1=O` the Potency was inconclusive: 7.31 µM [cytotoxic, partial curve].
In the case of `COC(=O)C1=C(c2ccc(F)cc2OCc2ccccc2)C[C@@H]2CC[C@H]1N2C(=O)NCc1ccccc1C(F)(F)F`, the “activity change, negative = cytotoxicity” value is reported as inactive: -24%.
With `CCC(C)n1c(O)c(/C=N/Nc2nc3c(c(=O)n(C)c(=O)n3C)n2C)c(=O)[nH]c1=S` (stereo not given) the “activity change, negative = cytotoxicity” value was inactive: -12.1%.
With `CSCCC(c1nnnn1-c1ccc2c(c1)OCCO2)N1CCC(n2c(=O)[nH]c3ccccc32)CC1` (stereo not given) the Potency was inconclusive: 29.1 µM [cytotoxic, single point].
For `CC12CN3CC(C)(CN(C1)C31CCOCC1)C2=O`, the Potency was inconclusive: 16.4 µM [rising, single point].
With `Cc1cccc(C)c1-n1nnnc1C(c1cccs1)N1CCC(n2c(=O)[nH]c3ccccc32)CC1` (stereo not given) the Potency was inconclusive: 29.1 µM [cytotoxic, single point].
For `Fc1ccc2c(c1)nnn2C1CCN(Cc2ccccc2)CC1`, the “activity change, negative = cytotoxicity” value was inactive: -13.2%.
In the case of `O=[N+]([O-])/C=C/c1c(Cl)cccc1Cl`, the Potency is reported as inconclusive: 3.66 µM [cytotoxic, full curve, poor fit].
With `Cc1c2cnn(CC(=O)N3CCC4(CC3)OCCO4)c(=O)c2c(C)n1Cc1ccccc1` the “activity change, negative = cytotoxicity” value was inactive: -4.56%.
With `COc1ccc(CNC(=O)CCC(=O)N2C[C@H]3C[C@H](C2)c2cccc(=O)n2C3)cc1OC` the Potency was inconclusive: 11.6 µM [rising, single point].
For `CC(OC(=O)c1cn(C)c2ccccc12)C(=O)N1CCCC1` (stereo not given), the “activity change, negative = cytotoxicity” value was inactive: 0.935%.
With `N#Cc1cccc(NC(=O)c2sc3nc4c(cc3c2N)N2CCC4CC2)c1` the “activity change, negative = cytotoxicity” value was inactive: -12.6%.
With `CN1C(=O)C(=Cc2ccc(N3CCCCCC3)o2)C(=O)N(C)C1=S` the Potency was inconclusive: 32.6 µM [cytotoxic, single point].
In the case of `C=C[C@H]1CN2CC[C@H]1C[C@@H]2[C@@H](O)c1ccnc2ccccc12`, the Potency is reported as inconclusive: 2.91 µM [cytotoxic, full curve].
For `O=C(O)C(O)(c1ccc(Cl)cc1)C1(O)CCCC1` (stereo not given), the “activity change, negative = cytotoxicity” value was inactive: -1.17%.
In the case of `Nc1ncnc2c1ncn2[C@@H]1O[C@H](COP(=O)(O)CP(=O)(O)O)[C@@H](O)[C@H]1O`, the Potency is reported as active: 14.6 µM.
For `CN1C(=O)C(Cc2nc3ccccc3c(=O)n2-c2ccccc2)c2ccccc21` (stereo not given), the activity change, negative = cytotoxicity was inconclusive: -30.2%.
With `Clc1ccc2c(c1)C(OC1CN3CCC1CC3)c1ccccc1CS2` (stereo not given) the Potency was active: 16.4 µM.
In the case of `COc1cc(C2c3cc4c(cc3CC3COC(=O)C32)OCO4)cc(OC)c1OC` (stereo not given), the Potency is reported as active: 0.58 µM.
In the case of `Cn1cccc1/C=C1/C(=O)NC(=O)N(Cc2ccccc2)C1=O`, the Potency is reported as inconclusive: 20.6 µM [cytotoxic, single point].
For `Cc1nn(Cc2ccccc2)c(C)c1C(=O)NC1CCCc2ccccc21` (stereo not given), the Potency was inconclusive: 4.11 µM [cytotoxic, partial curve].
In the case of `CCOC(=O)CC1=C(C(=O)OCC)C2(C(=O)N1)C(C(=O)OC)=C(N)Oc1ccccc12` (stereo not given), the Potency is reported as inconclusive: 29.1 µM [rising, single point].
For `Oc1ccccc1/C=N/NP(=S)(c1ccccc1)c1ccccc1`, the Potency was inconclusive: 25.9 µM [cytotoxic, partial curve, poor fit].
For `O=c1[nH]c(O)c(N=Nc2cc([N+](=O)[O-])ccc2O)c(=O)[nH]1`, the “activity change, negative = cytotoxicity” value was inactive: -15%.
For `Cc1ccc(N2C(=O)NC(=O)/C(=C/c3cnn(-c4ccc(C)cc4)c3)C2=O)cc1`, the Potency was inconclusive: 18.4 µM [cytotoxic, single point].
With `CCOC(=O)c1cnc(N2CC2)nc1N` the Potency was active: 5.8 µM.
For `CCOc1ccc(NC(=O)c2cccn(Cc3cccc(Cl)c3)c2=O)cc1`, the Potency was inconclusive: 5.8 µM [cytotoxic, full curve].
With `COc1cc2c(cc1O)[C@@H]1Cc3ccc(OC)c(O)c3CN1CC2` the Potency was active: 7.31 µM.
With `O=C(c1ccc(Cl)cc1)C1CCCN(Cc2ccc3ncccc3c2)C1` (stereo not given) the Potency was active: 4.11 µM.
In the case of `COc1ccc(CN2CCN(Cc3ccccc3)CC2)c(OC)c1`, the Potency is reported as active: 23.1 µM.
With `COc1ccc(O)c(CN2CCCC(C(=O)c3ccccc3SC)C2)c1` (stereo not given) the Potency was inconclusive: 29.1 µM [cytotoxic, single point].
With `COc1ccc2c(c1)CC1(CN2C)C(=O)NC(=O)N(CCc2ccccc2)C1=O` (stereo not given) the Potency was inconclusive: 20.6 µM [cytotoxic, single point].
For `O=c1[nH]c(CN2CC=C(c3ccccc3)CC2)nc2cc(C(F)(F)F)ccc12`, the Potency was inconclusive: 29.1 µM [rising, single point].
For `Cc1ncoc1C(=O)NCC1=C(c2ccc(S(C)(=O)=O)cc2)C[C@@H]2CC[C@H]1N2Cc1ccco1`, the “activity change, negative = cytotoxicity” value was inactive: 6.41%.
With `COc1ccc(-n2nnnc2C(c2cc3ccccc3o2)N2CCC(n3c(=O)[nH]c4ccccc43)CC2)cc1` (stereo not given) the Potency was inconclusive: 25.9 µM [cytotoxic, partial curve, poor fit].
In the case of `CN1C(=O)C(=Cc2sc(=O)n(-c3ccccc3)c2N(C)C)C(=O)N(C)C1=O`, the “activity change, negative = cytotoxicity” value is reported as inactive: -20.5%.
With `O=C(c1cc(-c2cccnc2)nc2ccccc12)N1CCC2(CC1)OCCO2` the Potency was inconclusive: 7.31 µM [cytotoxic, partial curve].
With `Cc1ccc(OC(=O)N(C)C[C@@H]2OCc3cnnn3CCCC(=O)N([C@H](C)CO)C[C@H]2C)cc1` the Potency was inconclusive: 29.1 µM [rising, single point].
With `COc1cc2c(cc1OC)-c1c(OC)c(OC)c(OC)c3ccnc(c13)C2=O` the Potency was inconclusive: 29.1 µM [cytotoxic, single point].
For `Cc1[nH]c2ccccc2c1CCCNC1CCCCC1`, the Potency was inconclusive: 16.4 µM [cytotoxic, partial curve, poor fit].
With `O=C1NC(=O)C(CCc2ccncc2)(Cc2cccc(Cl)c2Cl)C(=O)N1c1ccc(Br)cc1` (stereo not given) the Potency was active: 8.2 µM.
In the case of `COc1ccc(CN2C(=O)NC(=O)/C(=C\c3ccco3)C2=O)cc1`, the “activity change, negative = cytotoxicity” value is reported as inactive: 0.663%.
In the case of `CN(C)CC1Oc2ccccc2OC1(O)c1ccccc1` (stereo not given), the Potency is reported as inconclusive: 20.6 µM [cytotoxic, single point].
In the case of `CCC(CC)N1CCN(Cc2nc3ccccc3c(=O)n2-c2ccc(F)cc2)CC1`, the Potency is reported as inconclusive: 20.6 µM [rising, single point].
For `COCCCN1Cc2ccccc2C1=N`, the “activity change, negative = cytotoxicity” value was inactive: 7.34%.
In the case of `COc1ccc(-n2nnnc2C(C2CC2)N2CCC3(CC2)C(=O)NCN3c2ccccc2)cc1` (stereo not given), the Potency is reported as inconclusive: 20.6 µM [cytotoxic, single point].
With `CC=CC(C)=CC(C)C(=O)CC(O)CC1CC(=O)NC(=O)C1` (stereo not given) the “activity change, negative = cytotoxicity” value was inactive: 0.826%.
With `CC(=O)O[C@H]1C(=O)[C@@]2(C)C([C@H](OC(=O)c3ccccc3)[C@]3(O)C[C@H](OC(=O)[C@H](O)[C@@H](NC(=O)Cc4ccccc4)c4ccccc4)C(C)=C1C3(C)C)[C@]1(OC(C)=O)CO[C@@H]1C[C@@H]2O` (stereo not given in full) the Potency was inconclusive: 29.1 µM [cytotoxic, single point].
For `O=c1[nH]c2ccccc2n1C1CCN(C(c2cccs2)c2nnnn2Cc2ccccc2)CC1` (stereo not given), the Potency was active: 14.6 µM.
In the case of `C[C@]12CCCCC1=CC(=O)C1C2CC[C@@]2(C)C1C[C@@H](F)[C@@H]2O` (stereo not given in full), the “activity change, negative = cytotoxicity” value is reported as inactive: -14.1%.
For `O=C(COc1ccccc1)N1CCN(CC2CC3C=CC2C3)CC1` (stereo not given), the Potency was inconclusive: 20.6 µM [cytotoxic, single point].

From PubChem BioAssay AID1347076 (National Center for Advancing Translational Sciences (NCATS), 2019)
% is set by controls: 0 for no effect and ±100 for the full control effect; potency is the fitted concentration of half-maximal effect.
